From PMC5045939, “Comparison of [^11C]TZ1964B and [^18F]MNI659 for PET imaging brain PDE10A in nonhuman primates” (Pharmacology Research & Perspectives, 2016)

Tested on: PDE10A
Assay: microPET imaging of NHP brain, reference-based kinetic analysis and AUC ratio
Format: in vivo, cynomolgus monkey
Conditions: for BPND-Logan CV (%) / BPND-SRTM CV (%) / Bias (DVR v.s. AUC ratio): NHP striatum; for BPND-Logan CV (%) / BPND-SRTM CV (%): coefficient of variation; for Bias (DVR v.s. AUC ratio): (mean AUC ratio - mean DVR)/mean AUC ratio; for coefficients of variation based on BPND values in NHP striatum: approximate, abstract
Method: PET imaging studies were carried out on two adult male cynomolgus monkeys, weighing on 7–8 kg. Subject A underwent three sets of double scans, and Subject B underwent one set of double scans. Animals were prepared for microPET studies as previously reported (Liu et al. 2015). About 1.5–2.5% isoflurane inhalation anesthesia was maintained throughout the microPET imaging sessions. A 20‐gage plastic catheter was inserted into a limb vein to permit hydration and injection of the radiotracer. Arterial blood was collected through another 20‐gage plastic catheter which was placed into a femoral artery.
The imaging studies of [^11C]TZ1964B and [^18F]MNI659 in the NHP brain through double scans were done using a MicroPET Focus 220 scanner (Concorde/CTI/Siemens Microsystems, Knoxville, TN). For all the double scans, [^11C]TZ1964B studies were performed in the morning and [^18F]MNI659 in the afternoon, with an interval of ~3 h between the injection of each tracer. Prior to each PET acquisition, a 45‐min transmission scan for attenuation correction was performed following a 10 min transmission that was used to check the position of the brain within the scanner. Subsequently, 296–370 MBq of [^11C]TZ1964B or [^18F]MNI659 was intravenously injected, and a 120 min dynamic (3 × 1‐min frames, 4 × 2‐min frames, 3 × 3‐min frames, and 20 × 5‐min frames) PET scan was acquired.
The PET images were processed according to the previous report (Liu et al. 2015). Briefly, emission scans were corrected and reconstructed using filtered back projection as described previously (Miller et al. 1989). The final reconstructed resolution was 2.00 mm full width at half maximum (FWHM) for all three dimensions (axial) at center of the field of view. The actual field of view is 25.8 cm diameter and a 7.6 cm axial length. The reconstructed PET images was co‐registered with magnetization‐prepared rapid gradient echo (MP‐RAGE) MR images using Automated Image Registration (AIR) (Woods et al. 1993), and superimposed using Analyze 10.0 (AnalyzeDirect, Overland Park, KS) for quality control. For quantitative analyses, three‐dimensional regions of interest (ROIs) for cerebellum (Subject A: 583 voxels; Subject B: 750 voxels, the voxel size is 1.858 mm × 1.858 mm × 0.796 mm = 2.75 μL), striatum (A: 695 voxels; B: 1158 voxels), frontal cortex (A: 263 voxels; B: 225 voxels), midbrain (A: 64 voxels; B: 118 voxels), and hippocampus (A: 68 voxels; B: 64 voxels) were identified on MRI images and then transformed into PET images using the co‐registration transformation matrix. The ROIs for each animal were kept fixed for all subsequent studies once identified on a baseline scan. Time–activity curves (TACs) for each ROI were then obtained from the dynamic PET images. Standardized uptake value (SUV) of each tracer was calculated and standardized to the body weight and the injected dose of radioactivity.
Regional tracer uptake was quantified using two different reference‐based kinetic methods: Logan Reference (LoganREF) model (Logan et al. 1990, 1996; Innis et al. 2007; Liu et al. 2015) and simplified reference tissue model (SRTM) (Lammertsma and Hume 1996; Gunn et al. 1997; Innis et al. 2007; Liu et al. 2015). According to the LoganREF model, the distribution volume ratio (DVR) of each ROI was calculated using a MATLAB (Mathworks Inc., Natick, MA). The nondisplaceable binding potential (BPND) was then estimated: BPND = DVR‐1. BPND and R1, k 2 values were also obtained from the SRTM model (Lammertsma and Hume 1996; Watabe et al. 1996).
We also calculated the area under the time–activity curve (AUC) for the striatal to cerebellar ratio (AUC‐striatum/AUC‐cerebellum); this is a simple model and input function‐independent method to quantify an index of tracer accumulation in the brain (Muller Herde et al. 2015). […] Ideally, the AUC ratio equals the DVR determined by LoganREF model (Muller Herde et al. 2015). […]

Cc1ccc2c(=O)n(-c3ccc(OCC[18F])cc3)c(CCN3C(=O)c4cccc(OC(C)C)c4C3=O)nc2c1 [[^18F]MNI659, 2‐(2‐(3‐(4‐(2‐[^18F]fluoroethoxy)phenyl)‐7‐methyl‐4‐oxo‐3,4‐dihydroquinazolin‐2‐yl)ethyl)‐4‐isopropoxyisoindoline‐1,3‐dione]
BPND-Logan CV (%): 31.93% | BPND-SRTM CV (%): 25.5% | Bias (DVR v.s. AUC ratio): 0.20 | coefficients of variation based on BPND values in NHP striatum: ~ 30%

Cn1cc(-c2ccncc2)c(-c2ccc(OCc3nc4ccccc4cc3O[11CH3])cc2)n1 [[^11C]TZ1964B, 3‐[^11C]methoxy‐2‐((4‐(1‐methyl‐4‐(pyridin‐4‐yl)‐1H‐pyrazol‐3‐yl)phenoxy)methyl)‐quinoline]
BPND-Logan CV (%): 16.61% | BPND-SRTM CV (%): 8.77% | Bias (DVR v.s. AUC ratio): 0.20 | coefficients of variation based on BPND values in NHP striatum: ~ 10%
